No constants are given. Whether binding was seen depends on the method and setting. In cells and extracts the contact can be indirect. Binding calls can cover weak binding; strength is not graded here. Tags and fused reporters may be left off the sequences shown.

The chains behind the UniProt entries cited, without tags or fusion partners. Where a name states a change or a piece, a line headed by the entry shows the natural chain unless it says otherwise.
UniProt P39938: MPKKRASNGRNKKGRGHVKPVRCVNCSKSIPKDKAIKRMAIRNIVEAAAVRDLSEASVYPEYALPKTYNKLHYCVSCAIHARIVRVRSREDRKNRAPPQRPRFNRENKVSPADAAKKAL

Assay [1] addresses T1, GST-Pse1 (S. cerevisiae) (UniProt P32337).
T1 sequence: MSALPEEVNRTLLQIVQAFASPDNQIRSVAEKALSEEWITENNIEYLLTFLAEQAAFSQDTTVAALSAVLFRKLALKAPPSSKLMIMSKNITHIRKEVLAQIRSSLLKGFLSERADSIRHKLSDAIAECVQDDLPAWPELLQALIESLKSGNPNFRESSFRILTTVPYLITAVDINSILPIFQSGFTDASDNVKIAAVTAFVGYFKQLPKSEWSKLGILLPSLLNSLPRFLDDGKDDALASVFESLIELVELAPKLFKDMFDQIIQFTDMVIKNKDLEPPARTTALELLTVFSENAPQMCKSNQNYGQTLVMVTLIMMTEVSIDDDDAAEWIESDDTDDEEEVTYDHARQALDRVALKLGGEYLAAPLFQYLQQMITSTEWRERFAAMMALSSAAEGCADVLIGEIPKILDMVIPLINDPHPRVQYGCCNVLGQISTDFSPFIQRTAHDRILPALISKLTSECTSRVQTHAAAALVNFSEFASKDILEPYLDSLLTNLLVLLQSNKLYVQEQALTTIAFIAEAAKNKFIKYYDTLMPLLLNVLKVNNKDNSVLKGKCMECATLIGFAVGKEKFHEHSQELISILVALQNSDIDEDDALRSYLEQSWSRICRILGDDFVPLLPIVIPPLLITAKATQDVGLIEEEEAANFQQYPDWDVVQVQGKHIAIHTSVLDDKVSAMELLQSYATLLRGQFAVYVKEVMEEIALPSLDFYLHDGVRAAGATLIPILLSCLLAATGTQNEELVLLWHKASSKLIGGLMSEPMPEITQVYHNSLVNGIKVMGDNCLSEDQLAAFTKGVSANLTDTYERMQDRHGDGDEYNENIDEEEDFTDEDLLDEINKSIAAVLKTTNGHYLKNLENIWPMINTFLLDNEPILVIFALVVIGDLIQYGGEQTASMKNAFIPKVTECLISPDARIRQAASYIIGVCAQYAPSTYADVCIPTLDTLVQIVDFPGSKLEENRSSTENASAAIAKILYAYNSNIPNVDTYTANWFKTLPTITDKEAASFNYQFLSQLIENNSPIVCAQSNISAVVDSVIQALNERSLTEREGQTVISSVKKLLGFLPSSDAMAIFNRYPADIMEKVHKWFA
Briefly: pull-down; GST-importins immobilised on Glutathione Sepharose, incubated with E. coli lysate containing ∼4 µM eS26^FLAG (or its mutants, or GFP-eS26) in PBSKMT with competing E. coli lysates for 1 hr at 4°C; Coomassie Blue staining or Western; only the target purified.

The target in assay [2] is T2, GST-Kap123 (S. cerevisiae) (UniProt P40069).
T2 sequence: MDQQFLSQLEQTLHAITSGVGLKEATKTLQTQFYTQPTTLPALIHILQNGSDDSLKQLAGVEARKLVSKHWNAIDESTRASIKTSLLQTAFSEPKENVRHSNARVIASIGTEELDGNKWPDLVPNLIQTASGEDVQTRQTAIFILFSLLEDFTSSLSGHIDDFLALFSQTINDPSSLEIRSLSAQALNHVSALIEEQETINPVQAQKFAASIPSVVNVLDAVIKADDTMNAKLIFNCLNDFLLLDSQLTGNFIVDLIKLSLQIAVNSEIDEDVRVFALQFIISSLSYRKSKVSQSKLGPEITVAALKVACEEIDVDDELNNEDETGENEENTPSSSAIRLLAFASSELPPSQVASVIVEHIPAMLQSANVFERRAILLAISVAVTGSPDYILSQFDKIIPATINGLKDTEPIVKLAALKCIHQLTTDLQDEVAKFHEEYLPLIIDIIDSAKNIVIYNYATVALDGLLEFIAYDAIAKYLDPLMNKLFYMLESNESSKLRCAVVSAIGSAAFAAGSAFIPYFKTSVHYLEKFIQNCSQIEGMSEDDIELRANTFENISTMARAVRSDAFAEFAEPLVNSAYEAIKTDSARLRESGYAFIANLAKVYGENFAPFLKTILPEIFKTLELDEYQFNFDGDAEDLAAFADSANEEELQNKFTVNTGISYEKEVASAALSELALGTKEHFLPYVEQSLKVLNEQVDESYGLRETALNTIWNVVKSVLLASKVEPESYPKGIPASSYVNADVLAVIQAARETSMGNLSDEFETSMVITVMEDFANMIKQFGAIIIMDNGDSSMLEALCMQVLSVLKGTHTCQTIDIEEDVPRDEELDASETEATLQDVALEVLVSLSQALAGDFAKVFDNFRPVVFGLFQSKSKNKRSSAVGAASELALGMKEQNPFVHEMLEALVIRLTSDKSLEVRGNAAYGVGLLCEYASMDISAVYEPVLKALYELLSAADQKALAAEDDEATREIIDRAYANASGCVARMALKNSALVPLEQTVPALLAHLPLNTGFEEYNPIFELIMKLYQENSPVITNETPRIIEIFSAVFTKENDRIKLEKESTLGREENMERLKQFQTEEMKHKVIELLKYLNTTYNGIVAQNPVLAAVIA
Described as above.

As to eS26^FLAG (from UniProt P39938), the binding entry in assay [1] and in assay [2] was “binds” throughout.

For the origin of these results see article PMC4161973.
